Test system: HLA molecules of melanoma, other tumor and normal tissue samples
Test: Identification and relative quantitation of tumor associated peptides presented on the cell surface (HLA immunoprecipitation, label-free LC-MS)
Parameters: species or system human; key to Peptide Presentation (presentation score): very highly over-presented on tumors compared to a panel of normal tissues (+++); highly over-presented on tumors compared to a panel of normal tissues (++); over-presented on tumors compared to a panel of normal tissues (+)
Details: for Peptide Presentation (presentation score): over-presentation on tumors compared to a panel of normal tissues; for Additional Entities (additional tumor types on which the peptide was found) / relevant organs/diseases (additional tumor types on which the peptide was found): over-presented on more than 5% of the measured tumor samples, or presented on more than 5% with ratio of geometric means tumor vs normal tissues larger than 3

Substance	Peptide Presentation (presentation score)	Additional Entities (additional tumor types on which the peptide was found)	relevant organs/diseases (additional tumor types on which the peptide was found)	other results
SEQ ID NO.: 19 (VLAVLGAVVAV; listed as Homo sapiens)				over-presentation in different cancer tissues (HLA-A*02 positive normal and tumor samples, FIG. 1E-1J): over-presentation
204 (RMDEEFTKI; listed as Homo sapiens) [compound 204]	+++	AML		
102 (RLPDQFSKL; listed as Homo sapiens) [compound 102]	+++	AML		
138 (YLDKTFYNL; listed as Homo sapiens) [compound 138]	+		CRC, CLL, AML	
189 (KALQFLEEV; listed as Homo sapiens) [compound 189]	+++	HCC	GC, CRC, BRCA, Uterine Cancer	
205 (SLKSKVLSV; listed as Homo sapiens) [compound 205]	+++	HCC		
92 (KLPGFPTQDDEV; listed as Homo sapiens) [compound 92]	+++			
99 (NLPSELPQL; listed as Homo sapiens) [compound 99]	+++			
53 (ILDEEKFNV; listed as Homo sapiens) [compound 53]	+++			
179 (ALDDTVLQV; listed as Homo sapiens) [compound 179]	+	HNSCC	SCLC, Esophageal Cancer	
160 (ALDDISESI; listed as Homo sapiens) [compound 160]	+	GC, Uterine Cancer	Esophageal Cancer	
61 (KLSVHVTAL; listed as Homo sapiens) [compound 61]	+++			
91 (ILLDRLFSV; listed as Homo sapiens) [compound 91]	+++	HNSCC		
177 (ILWDTLLRL; listed as Homo sapiens) [compound 177]	+		RCC, AML, Gallbladder Cancer, Bile Duct Cancer	
131 (FVDPNGKISL; listed as Homo sapiens) [compound 131]	++	Urinary bladder cancer, AML		
47 (ALDSDPVGL; listed as Homo sapiens) [compound 47]	+++			
52 (NLDYAILKL; listed as Homo sapiens) [compound 52]	+++			
39 (ALPPPPASI; listed as Homo sapiens) [compound 39]	+++			
191 (YLDKMNNNI; listed as Homo sapiens) [compound 191]	+++		NSCLC, RCC, Brain Cancer, PC, NHL, AML, BRCA, Esophageal Cancer, Urinary bladder cancer, Uterine Cancer, Gallbladder Cancer, Bile Duct Cancer	
83 (GLDKVITVL; listed as Homo sapiens) [compound 83]	+++			
76 (QIDSIHLLL; listed as Homo sapiens) [compound 76]	+++			
220 (SAAEPTPAV; listed as Homo sapiens) [compound 220]		HCC	Gallbladder Cancer, Bile Duct Cancer	
156 (ALMDTDGSGKLNL; listed as Homo sapiens) [compound 156]	+			
144 (SVDEVEISV; listed as Homo sapiens) [compound 144]			CLL	
7 (NLQEKVPEL; listed as Homo sapiens) [compound 7]	+++	HNSCC	PC, AML, BRCA, Uterine Cancer	
65 (TTLGGFAKV; listed as Homo sapiens) [compound 65]	+++			
105 (SLKQTVVTL; listed as Homo sapiens) [compound 105]	+++	HCC		
29 (ILDDVAMVL; listed as Homo sapiens) [compound 29]			CLL, NHL	

Substance	Peptide Presentation (presentation score)	Additional Entities (additional tumor types on which the peptide was found)	relevant organs/diseases (additional tumor types on which the peptide was found)	other results
101 (NVDENVAEL; listed as Homo sapiens) [compound 101]	+++			
214 (VLMEMSYRL; listed as Homo sapiens) [compound 214]	+	NSCLC, HNSCC	SCLC, RCC, CRC, CLL, NHL, AML, BRCA, Urinary bladder cancer, Gallbladder Cancer, Bile Duct Cancer	
14 (VLYEMLYGL; listed as Homo sapiens) [compound 14]	+++	HNSCC		
202 (RVAFKINSV; listed as Homo sapiens) [compound 202]	+++			
222 (LLSEIEEHL; listed as Homo sapiens) [compound 222]			CLL	
120 (QLMEGKVVL; listed as Homo sapiens) [compound 120]	++	HNSCC	NHL	
77 (SIDDVVKKL; listed as Homo sapiens) [compound 77]	+++			
143 (ILDDSALYL; listed as Homo sapiens) [compound 143]		AML	NHL, Uterine Cancer	
46 (VMSSTLYTV; listed as Homo sapiens) [compound 46]	+++			
95 (LLDALQHEL; listed as Homo sapiens) [compound 95]	+++			
217 (NMMSGISSV; listed as Homo sapiens) [compound 217]	++	BRCA, HNSCC	Brain Cancer, CRC, Urinary bladder cancer, Uterine Cancer, Gallbladder Cancer, Bile Duct Cancer	
118 (TMIEICEKL; listed as Homo sapiens) [compound 118]	++		NSCLC, AML, OC	
146 (GVGPVPARA; listed as Homo sapiens) [compound 146]	+	HCC, NHL	PC, AML, Urinary bladder cancer	
90 (ILDYIHNGL; listed as Homo sapiens) [compound 90]	+++			
208 (YSDDIPHAL; listed as Homo sapiens) [compound 208]	++	Gallbladder Cancer, Bile Duct Cancer	AML	
15 (VLYDPVVGC; listed as Homo sapiens) [compound 15]		HNSCC	CLL, NHL, AML, Uterine Cancer	
112 (VLPAVLTRL; listed as Homo sapiens) [compound 112]	+++			
187 (SLPRPTPQA; listed as Homo sapiens) [compound 187]	+		RCC	
58 (ILGDWSIQV; listed as Homo sapiens) [compound 58]	+++	HNSCC		
23 (FLGDPPPGL; listed as Homo sapiens) [compound 23]		Gallbladder Cancer, Bile Duct Cancer, HNSCC	CLL, NHL, AML, BRCA, Urinary bladder cancer, Uterine Cancer	
48 (HLIGWTAFL; listed as Homo sapiens) [compound 48]	+++			
148 (TLKDIVQTV; listed as Homo sapiens) [compound 148]		HCC	CLL, NHL, BRCA	
SEQ ID NO.:3 (VLFKDPVSV; listed as Homo sapiens)				over-presentation in melanoma versus normal tissues (18 melanoma vs panel of normal tissues, FIG. 1A-1C): over-presentation
127 (TLISDIEAVKA; listed as Homo sapiens) [compound 127]	+++		CLL, NHL, Urinary bladder cancer, Uterine Cancer	
57 (GILSFLPVL; listed as Homo sapiens) [compound 57]	+++		CLL, NHL	
108 (TVIRPLPGL; listed as Homo sapiens) [compound 108]	+++			
236 (GLDSGFHSV; listed as Homo sapiens) [compound 236]		CLL, AML	PC, NHL, BRCA	

From US10640547B2, “Immunotherapy against melanoma and other cancers” (IMMATICS BIOTECHNOLOGIES GMBH, priority 2016, dated 2020)
